Data as given in PubChem BioAssay AID1159594 (NIAID, 2016).

Assay: 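Mapping how TLR pathway genes contribute to TLR2/6 signalling in macrophage-like cells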
System: human THP-1 B5 reporter cells, PMA-differentiated into macrophage-like cells
Knock-down reagent: single siRNA against human genes
Duration: 48 to 72 hours after siRNA transfection; ligand exposure 4 hours
Challenge: Pam2CSK4 (TLR2/6 agonist) stimulation for 4 hours before lysis; dose not given
Measured: 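TNF promoter reporter signal as firefly to renilla luciferase ratio, scaled per plate by median and MAD, given as robust z-score against negative controls, averaged across replicates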
Direction: TNF reporter z-score: higher = stronger TNF promoter reporter activity
Hit rule: 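Active when the mean z-score across replicates is at or beyond ±1.5 in either direction, matching a depositor grade of 50 or higher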
Calls: active = z-score beyond ±1.5 (either direction); inactive = z-score within ±1.5
This is a random part of 756 reagents tested. 130 of them (17%) were called active. 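Active calls cover both falls and rises of reporter activity; each row reflects one siRNA, not a gene-level verdict.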 The numbers tell different reagents against one gene apart. Reagent sequences are not shown. The record does not give: the amount of reagent.

TNF reporter z-score, replicate mean, by target and reagent
TLR6 (toll like receptor 6): #1 0.22 inactive; #2 0.521 inactive; #3 -0.447 inactive; #4 0.65 inactive; #5 0.0147 inactive; #6 -0.355 inactive
TRAF6 (TNF receptor associated factor 6): #1 -3.75 active; #2 -4.19 active; #3 -6.12 active; #4 -2.38 active; #5 -4.02 active; #6 -3.26 active
PIK3R5 (phosphoinositide-3-kinase regulatory subunit 5): #1 0.409 inactive; #2 -1.14 inactive; #3 0.0119 inactive; #4 0.171 inactive; #5 -0.569 inactive; #6 -0.965 inactive
TICAM1 (TIR domain containing adaptor molecule 1): #1 -0.206 inactive; #2 0.0623 inactive; #3 0.275 inactive; #4 -2.75 active; #5 -1.17 inactive; #6 -0.939 inactive
PIK3CG: #1 -2.16 active; #2 -0.331 inactive; #3 -0.0584 inactive; #4 -0.791 inactive; #5 -0.734 inactive; #6 -1.53 active
DAB2IP (DAB2 interacting protein): #1 -0.522 inactive; #2 -1.37 inactive; #3 0.0305 inactive; #4 -1.02 inactive; #5 -0.961 inactive; #6 0.972 inactive
IL6 (interleukin 6): #1 0.829 inactive; #2 -0.481 inactive; #3 -1.48 inactive; #4 -0.106 inactive; #5 -0.697 inactive; #6 -0.2 inactive
CREBBP (CREB binding lysine acetyltransferase): #1 -0.358 inactive; #2 0.0469 inactive; #3 -0.277 inactive; #4 0.546 inactive; #5 0.6 inactive; #6 0.0678 inactive
